# Article PMC7819943, “Rice protein-binding microarrays: a tool to detect cis-acting elements near promoter regions in rice”
# Chains of the proteins cited; added tags and fusions are not shown.
# UniProt Q0JBA9, entry or part of it: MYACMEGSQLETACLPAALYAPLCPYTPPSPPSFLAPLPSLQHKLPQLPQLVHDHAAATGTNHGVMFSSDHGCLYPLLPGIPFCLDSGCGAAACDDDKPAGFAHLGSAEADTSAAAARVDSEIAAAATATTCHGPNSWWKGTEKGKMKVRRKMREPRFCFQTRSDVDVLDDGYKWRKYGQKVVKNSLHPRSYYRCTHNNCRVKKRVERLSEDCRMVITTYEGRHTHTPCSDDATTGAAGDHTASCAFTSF
# The list shows a part of the results.
# Biological target: OsWRKY34 (Oryza sativa, UniProt Q0JBA9 1-250)
# Assay: protein-binding microarray (RPBM); PBS, 2% BSA, 51.3 ng/ul salmon testes DNA, 50 uM zinc acetate, 200 nM TF, 25 C, 1 h; high values mean tight binding
# Conditions: protein: recombinant; tags: N-terminal polyhistidine and DsRed monomer fusion (pET32a); label: CyDye5-dUTP incorporated in the synthesized complementary strand; 3' TTTTT single-stranded linker to array surface; dsDNA, one strand shown
# Method in brief: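 Binding signal is reported as fluorescence intensity per feature (arbitrary units) from an Axon 4000B scanner. Incubation used 200 nM of each Ni–NTA-purified, N-terminally polyhistidine- and DsRed-fused transcription factor from E. coli BL21-CodonPlus on a double-stranded custom Agilent array for 1 h at 25 °C, with 50 µM zinc acetate in the buffer, followed by washing.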
row,Sequence,binding signal
1,CCTGCCACGACTTGCGTATATACTTGCGGTAACCTGTCAACGGAGTCACCTAGTGCAG,8640 fluorescence intensity (a.u.)
2,AACACAGTTTTCTGGCATTGACTTGCTGCCTGTTTTTCTTCGGAGTCACCTAGTGCAG,8600 fluorescence intensity (a.u.)
3,ACCACTCCATCAGTCCACCACCCACCTTCCCCGACCTTATCGGAGTCACCTAGTGCAG,10100 fluorescence intensity (a.u.)
4,GATAATTACTCTTACGTCCCTCACCCTATGTTCCTGTGTTCGGAGTCACCTAGTGCAG,8840 fluorescence intensity (a.u.)
5,GACTCCTCCTGCTAGCTCGCCCGTATCCAGCTCTACCTTCCGGAGTCACCTAGTGCAG,13300 fluorescence intensity (a.u.)
6,GTCACCTTTGTACCATCCAATTCCAACCCCACATTTCATCCGGAGTCACCTAGTGCAG,8100 fluorescence intensity (a.u.)
7,ATTGATCTCCTTTCCATCCTCGTCGACCTCGGCGGGCGCGCGGAGTCACCTAGTGCAG,9220 fluorescence intensity (a.u.)
8,TCCAGCTGCTTGCTTCTCTCTCTCTCTTCTCTTGAGCATCCGGAGTCACCTAGTGCAG,9650 fluorescence intensity (a.u.)
9,CAGGTTTTAAGTAGATAGGTGGTTTTTTTTTTCCCATAGACGGAGTCACCTAGTGCAG,8270 fluorescence intensity (a.u.)
10,TCGGCCGCCGGCGTCAATCTTCGATTCCCTCCGCTCCGGTCGGAGTCACCTAGTGCAG,8270 fluorescence intensity (a.u.)
11,TCCTCGGCCTCTTCTTCGCGCCCTCCGCCCCGCGACCGGGCGGAGTCACCTAGTGCAG,10300 fluorescence intensity (a.u.)
12,CGCGTCCACGTCGGGCTCCGGGGATGGGGCGGGGAAGCCGCGGAGTCACCTAGTGCAG,10500 fluorescence intensity (a.u.)
13,CACCAACTTACCGTCGTTCCAAGCCTTGTTTCTGCAGGCTCGGAGTCACCTAGTGCAG,12500 fluorescence intensity (a.u.)
14,GTCATATGGCACCATGCTTGCTCTCCACTCTTCAATCAGTCGGAGTCACCTAGTGCAG,9490 fluorescence intensity (a.u.)
15,TGCTTACCTAGTTACCTGACATGCTATTGATTCTTCATAACGGAGTCACCTAGTGCAG,8840 fluorescence intensity (a.u.)
16,GGCTGCTCCTGGCTCATCGTCCTAGTACACTCTCGTCGTACGGAGTCACCTAGTGCAG,9100 fluorescence intensity (a.u.)
17,CTTTCTCGCTGCTGTTTTTTTAGCTCGTGCCTGTCTGGTCCGGAGTCACCTAGTGCAG,8370 fluorescence intensity (a.u.)
18,TGGTTTCTTTGTCCATTGATCAAACTCATGGCATGTACGACGGAGTCACCTAGTGCAG,8360 fluorescence intensity (a.u.)
19,CCCCGGCCATGTCCAAGCCCGATCGCCGCTCCGGCGCCGCCGGAGTCACCTAGTGCAG,9910 fluorescence intensity (a.u.)
20,CCACTCATCGTCACGCCATTTCACCGCTTCCCTTTCCTGACGGAGTCACCTAGTGCAG,10500 fluorescence intensity (a.u.)
21,CATACTTCAATTTAATGCTACTTATCTCACATGATGTCTTCGGAGTCACCTAGTGCAG,8700 fluorescence intensity (a.u.)
22,CCTCTCCCTCTCCCGCCGCCACCGCCTCCGCCTCCGCCTCCGGAGTCACCTAGTGCAG,9220 fluorescence intensity (a.u.)
23,ACCTGTTGTGATATACTGTGTTTAGTTCAGCGTAAAATTTCGGAGTCACCTAGTGCAG,9280 fluorescence intensity (a.u.)
24,TCCCACGTTGCTCCATCTCTCGCTATAAACCATTTCTTCTCGGAGTCACCTAGTGCAG,13400 fluorescence intensity (a.u.)
25,TTCCTATCATTTGACTAATTGTTAAATATACTTTCATATACGGAGTCACCTAGTGCAG,8160 fluorescence intensity (a.u.)
26,CGACGGCTGCTAATCAACTCTTGAATTCACATCCAACGGACGGAGTCACCTAGTGCAG,8200 fluorescence intensity (a.u.)
27,ACCCTGTTGCTCATATTTTTTATTGGATTTCCCTTTTTTTCGGAGTCACCTAGTGCAG,12000 fluorescence intensity (a.u.)

row,Sequence,binding signal
1,TCTCTCCCCGCCTCCTCGCGGTGTCTGCCTCTCTCTCTCGCGGAGTCACCTAGTGCAG,9940 fluorescence intensity (a.u.)
2,TATGATATGTGTGCCTCAGTTGTTGTGCTTGCTGATGTGTCGGAGTCACCTAGTGCAG,9730 fluorescence intensity (a.u.)
3,CAGGTGTTTGTCTGCTAGTTCATGTAGCGTTGTGAGCATCCGGAGTCACCTAGTGCAG,8060 fluorescence intensity (a.u.)
4,AAACCCTTTTTTTCCCTTTAATTCTCATGTAAATTATTATCGGAGTCACCTAGTGCAG,8180 fluorescence intensity (a.u.)
5,GGTCATTCGTTCGTTGTTTTAACAGTTTGTTTTTTTTATACGGAGTCACCTAGTGCAG,9340 fluorescence intensity (a.u.)
6,AGGAGGATGTTGAAGGAAGATGTGGATATTTATATCCAATCGGAGTCACCTAGTGCAG,10100 fluorescence intensity (a.u.)
7,ATCCCGGATAGCTACCTGTGCTTCAATTCCTCTGCAAATCCGGAGTCACCTAGTGCAG,8230 fluorescence intensity (a.u.)
8,AGAAACCGAAACCTGCAAAATTTTCAGCGATCATTTCAGTCGGAGTCACCTAGTGCAG,8580 fluorescence intensity (a.u.)
9,CCACATGGCCACACCCACACTCTCTCCTTCTCTTGGGCTCCGGAGTCACCTAGTGCAG,11500 fluorescence intensity (a.u.)
10,TCTGCAACTGGTCTACACAGGCATCATTTCCACGCTTGACCGGAGTCACCTAGTGCAG,10300 fluorescence intensity (a.u.)
11,CATGCATGGTCCCTCACTGATCTCTTATCTCTTTCTACATCGGAGTCACCTAGTGCAG,9370 fluorescence intensity (a.u.)
12,ACGACTTAATCACACTGTTTTTTCTCTCCCGAGTACTTAACGGAGTCACCTAGTGCAG,12100 fluorescence intensity (a.u.)
13,CCATATACCGTTCTGGCCCATACGATTTTTTTTGATCGGTCGGAGTCACCTAGTGCAG,9210 fluorescence intensity (a.u.)
14,TCTTGATTTATTTTAGGACGGGTGGGTAGTTTTCTGCGTTCGGAGTCACCTAGTGCAG,11400 fluorescence intensity (a.u.)
15,ACCGCGCTCTACTCCTCCACCTCGTCGTCCTCCTCCTCCGCGGAGTCACCTAGTGCAG,9320 fluorescence intensity (a.u.)
16,CTTTCCATGGTTTTTGCTCCCGCAGCCCGGGCCACTGCCCCGGAGTCACCTAGTGCAG,11600 fluorescence intensity (a.u.)
17,GCGAGGTCGGGGAGGTGGGTGCACAGTGCCCTGCGAGATGCGGAGTCACCTAGTGCAG,8120 fluorescence intensity (a.u.)
18,TTCCGTCTTCTTCCTTCCTTCTCCATCTTCTTCGTGGCCACGGAGTCACCTAGTGCAG,9170 fluorescence intensity (a.u.)
19,CTCTGTTCTATAATGTACTCCCTCCGGTTCTATAATAATTCGGAGTCACCTAGTGCAG,8720 fluorescence intensity (a.u.)
20,TTGACGGAGCATCTATACCCGGTTTTGTAGTTCATGAACACGGAGTCACCTAGTGCAG,9100 fluorescence intensity (a.u.)
21,GCTCCCTTGTGTGACAACGCCGATCCTCACCTACACCTTCCGGAGTCACCTAGTGCAG,10200 fluorescence intensity (a.u.)
22,GCGTCACATCGCTTGTGAGTTCGTCTCGTCGGCTTACTTACGGAGTCACCTAGTGCAG,8600 fluorescence intensity (a.u.)
23,AATCTTTTAGCGGCTCATAGTCATCTTCTCCAACCGCCGTCGGAGTCACCTAGTGCAG,8370 fluorescence intensity (a.u.)
24,CCGTTACCGCGAAATCAAAATGCCTGCCCCGCCACTTTTTCGGAGTCACCTAGTGCAG,8970 fluorescence intensity (a.u.)
25,CTCATCATTCCTAACCATTTTCTCGGCCACCCATCTATCTCGGAGTCACCTAGTGCAG,9810 fluorescence intensity (a.u.)
26,ACAAATAATTGTTTTCGTTGGTTGCGCACTTTATATATACCGGAGTCACCTAGTGCAG,9420 fluorescence intensity (a.u.)
27,TTTGACGCCGTTGACTTTTTTAAAAATGTTTGACCGTTCACGGAGTCACCTAGTGCAG,25100 fluorescence intensity (a.u.)

# 4 consecutive records out of the list so far, for reference:
row,Sequence,binding signal
5,GGTCATTCGTTCGTTGTTTTAACAGTTTGTTTTTTTTATACGGAGTCACCTAGTGCAG,9340 fluorescence intensity (a.u.)
6,AGGAGGATGTTGAAGGAAGATGTGGATATTTATATCCAATCGGAGTCACCTAGTGCAG,10100 fluorescence intensity (a.u.)
7,ATCCCGGATAGCTACCTGTGCTTCAATTCCTCTGCAAATCCGGAGTCACCTAGTGCAG,8230 fluorescence intensity (a.u.)
8,AGAAACCGAAACCTGCAAAATTTTCAGCGATCATTTCAGTCGGAGTCACCTAGTGCAG,8580 fluorescence intensity (a.u.)
